For at least one compound, name, drawing or mass did not settle the structure.
Tests used:
CRAC channel = CRAC channel (Homo sapiens, UniProt Q96D31); experiment: CRAC channel activity / SOCE in MRC5; assay type: cell-based; parameters: endogenous in cells; conditions: MRC5, 10 μM pretreatment 45 min
Experimental: (§1) Cells were co-treated with various compounds (10 μM) and TGF-β1 for 24 hours. Following this, cell lysates were harvested, and the protein expression was assessed by Western blot analysis. FIG. 3D depicts the examination of TGF-β1-induced fibronectin deposition and α-SMA expression in HCF treated with 10 μM of DMSO, BTP2, WRG-28, or Av through immunofluorescence staining. The images were captured using a confocal microscope, the Olympus FV-1000. FIG. 3E, FIG. 3F, and FIG. 3G illustrate the assessment of CRAC channel activity in HCF, MRC5, and rat HSC-T6. These cells were pretreated with 10 μM of BTP2, WRG-28, or Av for 45 min. The evaluation included measuring the second peak of each calcium wave and the rate of entry. Each bar within the figure represents the mean value derived from 77 to 91 cells for HCF, 31 to 49 cells for MRC5, and 43 to 94 cells for HSC-T6. In all the graphs, *, **, and *** denote p-values of <0.05, 0.01, and 0.001, respectively.
Cells cultured on a glass-bottom 96 well plate for 48 hours were treated with different compounds (10 μM) and Fura 2-AM (1 μM) simultaneously in a solution containing 145 mM NaCl, 2.8 mM KCl, 2 mM CaCl2, 2 mM MgCl2, 10 mM D-glucose, 10 mM HEPES, pH 7.4 for 40 minutes in the dark. […] All the images were analyzed by using IGOR Pro software. […]

By UniProt entry, the sequences of proteins in these tests, tags left out.
UniProt Q96D31, whole entry: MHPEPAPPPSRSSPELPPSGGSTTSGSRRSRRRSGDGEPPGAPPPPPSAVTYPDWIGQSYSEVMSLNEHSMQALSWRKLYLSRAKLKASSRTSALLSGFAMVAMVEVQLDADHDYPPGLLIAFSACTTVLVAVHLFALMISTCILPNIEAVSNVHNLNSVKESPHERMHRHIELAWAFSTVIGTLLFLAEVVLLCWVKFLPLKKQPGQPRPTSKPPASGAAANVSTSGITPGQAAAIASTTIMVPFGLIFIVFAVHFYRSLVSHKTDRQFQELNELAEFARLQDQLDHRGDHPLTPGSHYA

[1] = test system: human cardiac fibroblast (HCF); experiment: TGF-β1-induced activation of human cardiac fibroblasts (Western blot); assay type: cell-based; conditions: 10 μM co-treatment, 24 hours
Experimental: as §1, with “Each bar within the figure represents the mean value derived from 77 to 91 cells for HCF, 31 to 49 cells for MRC5, and 43 to 94 cells for HSC-T6. In all the graphs, *, **, and *** denote p-values of <0.05, 0.01, and 0.001, respectively.” left out
Cell lysates were harvested in RIPA buffer (150 mM NaCl, 1 mM EGTA, 50 mM Tris pH 7.4, 10% glycerol, 1% Triton X-100, 1% sodium deoxycholate, 0.1% SDS, and protease inhibitor cocktail) and collected from culture dish with cell scrapers. […] The protein expression levels were assessed by specific primary antibodies, including antibodies against phosphotyrosine (clone 4G10; Millipore), DDR2 (R&D), α-SMA (Sigma), Collagen 1a1 (Boster), E-cadherin (BD Biosciences), SGLT2 (Proteintech), NHE1 (Novus) and β-actin (Clone C4, Millipore), followed by incubating with secondary antibodies conjugated with HRP and detected by ECL kit (Thermo Scientific). […]

**Q.** For `O=C1C(O)=C([C@H]2CC[C@H](c3ccc(Cl)cc3)CC2)C(=O)c2ccccc21` [Av, atovaquone], which SOCE (CRAC channel) is on record?
**A.** notably reduced

**Q.** And the “upregulation of α-SMA induced by TGF-β1” value [1]?
**A.** suppressed

— patent publication US20250339443A1, “METHOD FOR TREATING OR PREVENTING CALCIUM RELEASE-ACTIVATED CALCIUM CHANNEL OR DISCOIDIN DOMAIN RECEPTOR 2 RELATED DISORDERS OR CONDITIONS” (LumiSTAR Biotechnology, Inc., priority 2023, published 2025)
